# Some of the results follow. Shown are side measurements of this screen, not its main read-out; they come without a call. Compounds called inactive in the main read-out are mostly missing here. Words in brackets tell the shape of the fitted curve; partial curves, single points and poor fits give uncertain potencies.
# Assay: IkB Signaling
# Details: ABC-DLBCL IkBa-CBG/CBR dual luciferase ratio (green luciferase fused to IkBa over red control in OCI-Ly3 lymphoma cells), 4 h; measured here: control luc red channel unless noted
# How it was run: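 In this assay, an IκBα–CBG68 fusion accumulates when IKK-driven degradation is blocked; native CBR normalizes for cell number. OCI-Ly3 cells were treated 4 h with compound and doxycycline, then green and red light read after Chroma-Glo addition.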
row,Structure (SMILES),AC50
1,COc1cccc(-c2nnc3n(Cc4ccc(F)cc4)c(=O)c4ccccc4n23)c1,"25.1 µM [falling, single point]"
2,COc1cc(NC(=O)c2cccs2)c(C(=O)OCC(=O)NCc2ccco2)cc1OC,"15.8 µM [falling, partial curve]"
3,CC1=C(C(=O)Nc2ccc(C)cc2C)C(c2ccccc2C)n2ncnc2N1 (configuration not stated),"2.51 µM [falling, full curve]"
4,Cc1cccc(-c2nc3c(C#N)c[nH]n3c2NC2CCCCC2)c1,"10 µM [falling, partial curve]"
5,COc1cc(NC(=O)c2noc3c2CCc2ccccc2-3)cc(OC)c1OC,"10 µM [falling, partial curve]"
6,Cc1nn(-c2ccc3nncn3n2)c(C)c1CCC(=O)Nc1ccc(OC(F)(F)F)cc1,"7.94 µM [rising, full curve, poor fit]"
7,c1ccc(-n2nnc3cnccc32)cc1,"1.26 µM [falling, full curve]"
8,CCCCN(C)CCNC(=O)c1cc(-c2cccnc2)nc2ccc(S(=O)(=O)N3CCC(C)CC3)cc12,"25.1 µM [falling, single point]"
9,O=C(COc1ccccc1F)Nc1ccc(C(=O)OCc2cc(=O)n3nc(C4CC4)sc3n2)cc1,"7.94 µM [rising, single point]"
10,Cc1ccc(NC(=O)CCSCCc2ccccn2)cc1,"15.8 µM [falling, partial curve]"
11,CCc1ccc(-n2c(C)nnc2SCc2nc(-c3ccc(OC)cc3)no2)cc1,"25.1 µM [falling, partial curve]"
12,O=C(Nc1ccc(Cl)cc1Cl)c1cc(S(=O)(=O)N2CCN(c3ccccc3F)CC2)ccc1F,"3.98 µM [falling, full curve]"
13,CCOC(=O)Cc1csc(NC(=O)c2csc3c2CCCC3)n1,"1.58 µM [falling, full curve]"
14,Cc1cccc(-c2nnc(-c3ccccc3)o2)c1,"20 µM [falling, single point]"
15,Cc1ccc(S(=O)(=O)n2nc(OC(=O)c3cccs3)cc2N)cc1,"39.8 µM [rising, partial curve] [measured here: IkB-luc green channel]"
16,O=S(=O)(c1ccccc1)N1CCN(c2ncnc3sc(-c4ccccc4)cc23)CC1,"10 µM [falling, partial curve]"
17,CC(C)(C)OC(=O)N1CCC(c2c(C(=O)NCc3ccc4c(c3)OCO4)cnn2-c2ccc(F)cc2F)CC1,"15.8 µM [falling, partial curve]"
18,COc1ccc(CNC(=O)c2ccc3c(c2)N(Cc2ccccc2)C(=O)c2ccccc2S3(=O)=O)cc1,"7.94 µM [falling, full curve]"
19,CCOc1ccccc1-c1nnc(SCc2ccc(Cl)cc2)o1,"31.6 µM [falling, single point]"
20,Cc1nn(Cc2ccccc2Cl)c(C)c1NC(=O)c1noc2c1CCCCC2,"2.51 µM [falling, full curve, poor fit]"
21,CCCN(C(=O)c1cc2c(Cl)nc3ccccc3c2s1)c1cccc(C)c1,"3.98 µM [falling, full curve]"

row,Structure (SMILES),AC50
1,COc1ccc(Cl)cc1Nc1sc(C(=O)c2ccccc2)c(N)c1C(=O)Nc1ccccc1,"15.8 µM [falling, partial curve]"
2,Clc1ccc(Cn2ncc3c(N4CCCCC4)ncnc32)cc1,"15.8 µM [falling, partial curve]"
3,CCc1c(C)sc2c1CCN(Cc1cccc(F)c1)C2c1ccccc1 (configuration not stated),"25.1 µM [falling, single point]"
4,CCCN(C/C=C\I)[C@@H]1CCc2cccc(O)c2C1,"63.1 µM [falling, partial curve, poor fit]"
5,COc1ccc(NS(=O)(=O)c2ccc3oc4ccccc4c3c2)cn1,"15.8 µM [falling, partial curve]"
6,Cc1ccc(Nc2nc(N)nc(CN3CCN(c4ccccc4F)CC3)n2)cc1,"10 µM [falling, partial curve]"
7,Cn1c(=O)cc(OCC(=O)N2CCC(N3CCCCC3)CC2)c2ccccc21,"31.6 µM [rising, single point] [measured here: IkB-luc green channel]"
8,Cc1ccc(NC2=C(c3ccc(C(F)(F)F)cc3)C(=O)c3ccccc32)cc1C,"15.8 µM [falling, single point]"
9,Cc1ccc(S(=O)(=O)c2nc(-c3ccccc3F)oc2N2CCCCC2)cc1,"20 µM [falling, single point]"
10,Cc1ccc(-c2cc(C(=O)NCc3cnn(C)c3C)c3cc(Br)ccc3n2)cc1,"12.6 µM [falling, partial curve]"
11,N#CCCSCc1ccc2oc(C(=O)O)cc2c1,"39.8 µM [rising, single point] [measured here: IkB-luc green channel]"
12,Brc1ccc(CSc2nnc(-c3cnccn3)n2Cc2ccco2)cc1,"25.1 µM [falling, partial curve]"
13,CCOC(=O)c1ccccc1NC(=O)Cn1cc(C(=O)c2cccc(OC)c2)c(=O)c2ccc(C)nc21,"39.8 µM [falling, single point]"
14,Cc1ccc(CCNC(=O)c2ccc3c(c2)N(Cc2cccc(C)c2)C(=O)c2ccccc2S3(=O)=O)cc1,"25.1 µM [rising, partial curve, poor fit]"
15,CC(C)c1ccc(NC(=O)c2cc3c(s2)-c2ccccc2SC3)cc1,"12.6 µM [falling, partial curve]"
16,O=C(CN1C(=O)COc2ccc(S(=O)(=O)N3CCCCCC3)cc21)NCc1ccc(Cl)cc1,"10 µM [falling, partial curve, poor fit]"
17,CCOc1ccc(NC(=O)c2ccc3c(SCC(=O)O)c4c(nc3c2)CCCC4)cc1,"3.16 µM [falling, full curve]"
18,Cc1ccc(C(=O)N2CCc3cc(CNS(=O)(=O)c4ccc(Cl)s4)ccc32)cc1,"0.398 µM [falling, single point]"
19,O=C(CN1CCN(S(=O)(=O)c2cc(Cl)ccc2Cl)CC1)Nc1cccc(F)c1,"39.8 µM [falling, single point]"
20,Fc1ccc(-c2nc(Nc3ccc(F)c(Cl)c3)nc3c2COc2ccccc2-3)cc1,"10 µM [falling, partial curve]"
21,CC(C(=O)Nc1cccc(C#N)c1)n1nc(-c2ccccc2)c2c(c1=O)CCCC2 (configuration not stated),"10 µM [falling, partial curve]"

row,Structure (SMILES),AC50
1,CC1=C(C(=O)Nc2ccc(C)cc2C)C(c2ccccc2[N+](=O)[O-])n2ncc(C(=O)Nc3ccccc3)c2N1 (configuration not stated),"20 µM [falling, single point]"
2,CCOC(=O)C1CCCN(C(=O)c2ccc3c(c2)N(Cc2ccccc2)C(=O)c2ccccc2S3(=O)=O)C1 (configuration not stated),"39.8 µM [falling, single point]"
3,Cc1nn(C)c(C)c1CN(C)C(=O)c1cnn2c1NC(c1ccccc1)CC2C(F)(F)F (configuration not stated),"1.58 µM [rising, partial curve] [measured here: IkB-luc green channel]"
4,O=C(NCC(c1cccnc1)N1CCc2ccccc2C1)c1ccc(F)c(F)c1 (configuration not stated),"39.8 µM [falling, single point]"
5,CCOC(=O)c1ccccc1NC(=O)CSc1nnc(COc2ccccc2C)n1C,"25.1 µM [falling, partial curve]"
6,COc1cc(C(=O)Nc2nc(-c3cccs3)cs2)cc(OC)c1OC,"3.16 µM [falling, full curve, poor fit]"
7,CCS(=O)(=O)N1CCc2cc(C(=O)NCc3ccc(OC)cc3)ccc21,"10 µM [falling, partial curve]"
8,c1ccc2c(c1)CCCN2Cc1nnnn1C1CCCC1,"25.1 µM [rising, partial curve]"
9,COC(=O)c1[nH]c2ccc(C)cc2c1NC(=O)CN1CCCc2ccccc21,"15.8 µM [falling, partial curve]"
10,CCOC(=O)c1ccc(NC(=O)CCCc2nc(-c3ccccc3Cl)no2)cc1,"25.1 µM [falling, single point]"
11,CCOc1ccc(-c2cc(NC(=O)Nc3cccc(C(C)=O)c3)c(C(=O)OC)s2)cc1,"7.94 µM [rising, full curve]"
12,[O-]/[N+](=C/c1cccnc1)c1ccc(Br)cc1,"7.94 µM [falling, full curve, poor fit]"
13,CCOC(=O)CSc1nc2ccc(NC(=O)c3ccc(C)cc3)cc2s1,"20 µM [falling, partial curve]"
14,COc1cccc(N2CCN(C(=O)C(CCSC)NS(=O)(=O)c3ccc4c(c3)oc(=O)n4C)CC2)c1 (configuration not stated),"1 µM [rising, full curve]"
15,CCc1ccc(CNC(=O)Cc2ccc(NC(=O)N3CCSc4ncccc43)cc2)cc1,"12.6 µM [falling, partial curve, poor fit]"
16,CCn1c2ccccc2c2cc(CN3CCN(C(=O)c4ccco4)CC3)ccc21,"12.6 µM [falling, partial curve]"
17,Cc1ccc(CNC(=O)Cn2nc(C)n3cccc3c2=O)cc1,"2.51 µM [rising, partial curve, poor fit]"
18,CN(C)CCCSc1ccccc1NC(=O)/C=C\c1ccccc1,"0.158 µM [falling, full curve]"
19,Cc1cc(C)cc(C(=O)Nc2ccc(-c3nc4ncccc4o3)cc2)c1,"10 µM [falling, single point]"
20,Cc1c2cnn(CC(=O)N3CCN(c4ccc(F)cc4)CC3)c(=O)c2c(C)n1Cc1ccc(F)cc1,"12.6 µM [falling, partial curve]"

# Entries above with a COOH group (2):
row,Structure (SMILES),AC50
11,N#CCCSCc1ccc2oc(C(=O)O)cc2c1,"39.8 µM [rising, single point] [measured here: IkB-luc green channel]"
17,CCOc1ccc(NC(=O)c2ccc3c(SCC(=O)O)c4c(nc3c2)CCCC4)cc1,"3.16 µM [falling, full curve]"
